Source: patent publication US5340788A, “Diphenylsulfone derivatives and heat sensitive recording materials” (Nippon Soda Co., Ltd., priority 1990, dated 1994)

Assay: Plasticizer proofness of colored image (polyvinyl chloride film contact)
Settings: for Concentration of colored image, Remained %: after/before exposing; for Concentration of colored image, Remained % / Concentration of colored image, After exposing: PVC film contact, dark, 25° C., 10 days; for Concentration of colored image, Before exposing / Concentration of colored image, After exposing: color density; for Concentration of colored image, Before exposing: Macbeth RD-514, filter #106, before PVC film contact; for Concentration of colored image, After exposing: filter #106

| SMILES | Concentration of colored image, Remained % | Concentration of colored image, Before exposing | Concentration of colored image, After exposing |
| --- | --- | --- | --- |
| C=CCOc1ccc(S(=O)(=O)c2ccc(OCC3CO3)cc2)cc1 (stereo not drawn) [(7)] | 60% | 0.89 | 0.56 |
| Cc1ccc(COc2ccc(S(=O)(=O)c3ccc(OCC4(C)CO4)cc3)cc2)cc1 (stereo not drawn) [(6)] | 65% | 0.83 | 0.53 |
| CC1(COc2ccc(S(=O)(=O)c3ccc(OCc4ccc(Cl)cc4)cc3)cc2)CO1 (stereo not drawn) [(4)] | 45% | 0.77 | 0.35 |
| Cc1ccc(COc2ccc(S(=O)(=O)c3ccc(OCC4CO4)cc3)cc2)cc1 (stereo not drawn) [compound (5), 4-(4-methylbenzyloxy)-4'-glycidyloxydiphenylsulfone] | 64% | 0.88 | 0.56 |
| CC1(COc2ccc(S(=O)(=O)c3ccc(OCc4ccccc4Cl)cc3)cc2)CO1 (stereo not drawn) [(3)] | 45% | 0.76 | 0.34 |
| CC1(COc2ccc(S(=O)(=O)c3ccc(OCc4ccccc4)cc3)cc2)CO1 (stereo not drawn) [compound (1), 4-benzyloxy-4'-(2-methylglycidyloxy)diphenylsulfone] | 70% | 0.77 | 0.54 |
